# PubChem BioAssay AID504791 – Drosophila RNAi Screening Center, 2011
# Assay: 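Genes whose knock-down strengthens or weakens small-RNA reporter silencing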 (primary screen)
# Cell system: Drosophila S2-derived reporter cells
# Knock-down reagent: long dsRNA against Drosophila genes, about 150-250 ng dsRNA per well (siRNA assay); about 80-120 ng (miRNA assay)
# Time to read-out: about 5 days (siRNA assay); about 4 days (miRNA assay)
# Conditions: copper sulfate induction of reporters: 25 µM (siRNA assay); 200 mM stated (miRNA assay), 1-2 days before reading
# Measured: 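Dual luciferase assay: Renilla to firefly signal ratio in each well, scaled to the mean ratio of its plate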
# Call rule: 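a well was a first-pass pick when its plate-scaled ratio rose above 1.5 (siRNA assay) or 1.6 (miRNA assay), or dropped below 0.6; a gene counted only if two separate dsRNAs agreed on retest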
# The screen tested about 23,000 reagents; below is a random part of those with a known target gene and a result. Over the whole deposit, 199 (0.86%) are marked active. 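Plate-scaled ratios behind the calls are not deposited; printed light signals are raw; many rows marked increased or decreased are still called inactive.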 A number with no mark means an inactive call. A plus sign joins genes that one reagent is predicted to hit. Not given: the direction of the score.
Gene,dsRNA,stable siRNA reporter change,miRNA reporter change,"stable assay Renilla, run 1 (luminescence)","stable assay firefly, run 1 (luminescence)"
CG14043,DRSC02368,,,7018,3.96e5
yuri,DRSC01453,,,5952,5.79e5
yuri,DRSC01454,,,5927,4.53e5
yuri,DRSC01943,,,8186,4.03e5
yuri,DRSC01972,,,2.14e5,1.21e6
hec,DRSC19895,,,5555,3.64e5
CG14929 + CG4970 + CG14930,DRSC02412,,,6922,3.74e5
CG12912,DRSC06227,reporter ratio raised past the hit cutoff,reporter ratio raised past the hit cutoff,4267,1.44e5
Blos2,DRSC10147,,,6726,3.93e5
tra2,DRSC07708,,,8231,4.61e5
CR33294,DRSC22950,,,4128,3.84e5
lilli,DRSC00708,reporter ratio lowered past the hit cutoff (active),,8845,3.76e5
CG11668,DRSC14341,,,6526,5.08e5
Spc25,DRSC14164,reporter ratio lowered past the hit cutoff,,5995,5.69e5
CG7916,DRSC01901,,,7599,3.12e5
asl,DRSC12319,reporter ratio raised past the hit cutoff,,12415,2.38e5
CG2120,DRSC18207,,,5227,2.87e5
CG2120,DRSC26944,,reporter ratio raised past the hit cutoff,,
CG10053,DRSC12502,,,7814,4.40e5
CG13215,DRSC06337,,,7092,5.23e5
Trmt112,DRSC11685,,,7158,4.80e5
Trim9,DRSC02242,,,8661,4.07e5
lncRNA:CR32553,DRSC19229,,,5723,4.48e5
spi,DRSC03618,,,7102,3.41e5
CG15729 (retired record),DRSC19695,,,5915,4.42e5
CG13858 (retired record),DRSC14708,,,6676,3.45e5
CG13858 (retired record),DRSC14709,,,7976,3.11e5
CG13858 (retired record),DRSC14710,,,7514,3.11e5
CG13858 (retired record),DRSC14711,,,8135,3.63e5
TotF,DRSC02305,,,7523,5.47e5
miple1,DRSC08722,,,6051,3.52e5
Lk,DRSC10022,,,6846,4.15e5
qkr54B,DRSC07670,,,6647,2.96e5
CG42597,DRSC03681,,,4111,3.43e5
beta-PheRS,DRSC15859,,,7696,3.75e5
CR31958,DRSC00282,,,6826,4.05e5
CR31958,DRSC21858,,,8571,6.35e5
Cpn,DRSC16613,,,8501,4.82e5
Cpn,DRSC23835,,reporter ratio raised past the hit cutoff,,
SP1029,DRSC16848,,,6651,3.56e5
MED30,DRSC08516,,,8860,3.17e5
MED30,DRSC23135,,,6715,4.16e5
CG9795,DRSC12336,,,9285,3.24e5
Muc96D,DRSC13709,,,5938,4.64e5
Muc96D,DRSC21609,,,7756,4.02e5
Muc96D,DRSC23213,,,4271,2.90e5
CG9897 + asRNA:CR42742,DRSC04595,,,6990,3.87e5
Adgf-A,DRSC10566,,,7730,2.85e5
Actbeta,DRSC17185,,,5467,2.73e5
Actbeta,DRSC17217,,,5672,3.22e5
Rab6,DRSC03404,,,1.48e5,2.63e5
Cep97,DRSC00637,,,15562,2.87e5
CG8172,DRSC07089,,,6666,4.64e5
CG8172,DRSC22113,,,10751,6.00e5
CG7530,DRSC16255,,,3615,3.72e5
sad,DRSC16630,,,7639,4.39e5
Adgf-D,DRSC16521,,,7446,3.37e5
